{"source": "paper PMC9048411", "key": {"TDP-43 WT": {"target": "TDP-43 WT (UniProt Q13148)", "experiment": "phase separation microscopy and FRAP", "settings": "called non-binding RNA, no effect on condensates vs no RNA, 4 uM each, 150 mM NaCl pH 7.5, RNA unlabeled; recombinant protein; residues 1-414"}, "[1]": {"target": "TDP-43 F4L F147L,F149L,F229L,F231L (UniProt Q13148)", "experiment": "fluorescence anisotropy", "settings": "not determined up to 2 uM, could not be determined because contacts are greatly disrupted; Fluorescence anisotropy: 10 mM Tris pH 8.0, 300 mM NaCl, 5% glycerol, 5% sucrose, 0.5 mM TCEP, 100 nM 3'-FITC CLIP34, 0-2 uM protein, temperature not stated; recombinant protein; residues 1-414; label: 3' FITC"}}, "note": "For some assays here: Negatives hold for the conditions tested. At least one verdict rests on a figure or table, not on a statement of the authors. For some assays here: The exact form of at least one protein or probe is not confirmed. For some assays here: A weaker result is weaker than the reference pair of the same experiment.", "data": [{"sequence": "ACACACACACACACACACACACACACACACACACACA [A(CA)18]", "values": [{"measurement": "binding result", "setting": "TDP-43 WT", "value": "no binding"}]}, {"sequence": "GAGAGAGCGCGUGCAGAGACUUGGUGGUGCAUAA [CLIP34]", "values": [{"measurement": "binding result", "setting": "[1]", "value": "binds more weakly"}]}]}
